{
  "source": "patent US20160194696",
  "test_system": "PvuRts1I",
  "assay": "enzyme reaction in vitro",
  "details": "RT 2 h, purified recombinant protein, protein details: New England Biolabs",
  "note": "Construct, isoform or probe ends are uncertain for at least one entry. The comparison behind a weaker result is the experiment's own reference, which may not be listed here.",
  "data": [
    {"sequence": "GGTTGGACTCAAGACGATACTTACCGGATAAGGCGCAATTAGATTACTTAACCT (double strand) [hmC/mC]", "values": [
      {"measurement": "activity on this sequence", "setting": "5hmC at top position 20, 5mC at bottom position 13 (SEQ 1 / SEQ 4) [top 20 (5hmC), bottom 13 (5mC)], similar activity to hmC/hmC at highest concentration, letters built from the parent sequence and the stated change, variant of hmC/hmC", "value": "active"}
    ]},
    {"sequence": "GGTTGGACTCAAGACGATACTTACCGGATAAGGCGCAATTAGATTACTTAACCT (double strand) [mC/mC]", "values": [
      {"measurement": "activity on this sequence", "setting": "5mC at top position 20 and bottom position 13 (SEQ 2 / SEQ 4), partial non-specific digestion, variant of hmC/hmC", "value": "less active"}
    ]},
    {"sequence": "GGTTGGACTCAAGACGATACTTACCGGATAAGGCGCAATTAGATTACTTAACCT (double strand) [hmC/C]", "values": [
      {"measurement": "activity on this sequence", "setting": "5hmC at top position 20 (SEQ 1 / SEQ 5) [top 20 (5hmC)], similar activity to hmC/hmC at highest concentration, letters built from the parent sequence and the stated change, variant of hmC/hmC", "value": "active"}
    ]},
    {"sequence": "GGTTGGACTCAAGACGATACTTACCGGATAAGGCGCAATTAGATTACTTAACCT (double strand) [hmC/hmC]", "values": [
      {"measurement": "activity on this sequence", "setting": "5hmC at top position 20 and bottom position 13 (SEQ 1 / SEQ 3; listing omits the modified base) [top 20 (5hmC), bottom 13 (5hmC)], 10-fold serial dilutions from 110 ng/ul, 32 and 22 bp products, letters built from the parent sequence and the stated change", "value": "active"}
    ]},
    {"sequence": "GGTTGGACTCAAGACGATACTTACCGGATAAGGCGCAATTATATTACTTAACCT (double strand) [hmC/nonC]", "values": [
      {"measurement": "activity on this sequence", "setting": "5hmC at top position 20 (SEQ 6 / SEQ 7) [top 20 (5hmC)], similar activity to hmC/hmC at highest concentration, no second C needed, letters built from the parent sequence and the stated change, variant of hmC/hmC", "value": "active"}
    ]},
    {"sequence": "GGTTGGACTCAAGACGATACTTACCGGATAAGGCGCAATTAGATTACTTAACCT (double strand) [mC/C]", "values": [
      {"measurement": "activity on this sequence", "setting": "5mC at top position 20 (SEQ 2 / SEQ 5), partial non-specific digestion, variant of hmC/hmC", "value": "less active"}
    ]}
  ]
}
